Experimental data published in US20250339569A1 (priority 2021, published 2025).
For part of these data: HELM strings list residues between dots; [ac] is acetyl, [am] amide, other brackets name non-standard units. Starred links: 1 amine or outer side, 2 acyl side, 3 side chain; linkers in the order of their positions; H or OH if unused. Positions of bridges follow the written chain, without caps; N, C: chain ends. Non-standard residues stand in square brackets, D forms with d. *: point of attachment. NH(CH2)5NHDOTA = O=C(O)CN1CCN(CC(=O)O)CCN(CC(=O)NCCCCCN*)CCN(CC(=O)O)CC1; NH(CH2)3NHDOTA = O=C(O)CN1CCN(CC(=O)O)CCN(CC(=O)NCCCN*)CCN(CC(=O)O)CC1; NH(1-deoxy-D-glucityl) = OC[C@@H](O)[C@@H](O)[C@H](O)[C@@H](O)CN*; DOTA = O=C(O)CN1CCN(CC(=O)O)CCN(CC(=O)*)CCN(CC(=O)O)CC1; X6 = O=C(O)CCC(=O)Nc1cccc(C[C@H](N[*:1])C(=O)[*:2])c1; mXylylene = c1cc(C[*:1])cc(C[*:2])c1; X2 = O=C(CN1CCC(N[*:1])CC1)[*:2]; Dap = NC[C@H](N)C(=O)O; AEEA = NCCOCCOCC(=O)O

How the values were obtained:
[1] = general procedure: Fmoc solid-phase peptide synthesis; Rink amide resin; details: whole synthesis
[2] = general procedure: Fmoc solid-phase peptide synthesis; Trityl PS resin; details: whole synthesis, scale 50 μmol
[3] = general procedure: Fmoc solid-phase peptide synthesis; low loaded Rink amide resin; details: whole synthesis, scale 50 μmol, bicyclic

Substance: DOTA-PPAc-Gln-[Cys(3MeBn)-Glu-pro-Asp-Af3(Cpsu)-Leu-Thr-Trp-Ser-Cys]-NH2
- isolated mass ([1]; scale 50 μmol, thioether ring): 14.00 mg
- isolated yield ([1]; scale 50 μmol, thioether ring): 13.3%

Substance: {DOTA}-YCE[dP]KWLEWSC-NH2 (linker 2-11 via mXylylene; lactam 5-8; SMILES CC(C)C[C@@H]1NC(=O)[C@H](Cc2c[nH]c3ccccc23)NC(=O)[C@@H]2CCCCNC(=O)CC[C@H](NC1=O)C(=O)N[C@@H](Cc1c[nH]c3ccccc13)C(=O)N[C@@H](CO)C(=O)N[C@H](C(N)=O)CSCc1cccc(c1)CSC[C@H](NC(=O)[C@H](Cc1ccc(O)cc1)NC(=O)CN1CCN(CC(=O)O)CCN(CC(=O)O)CCN(CC(=O)O)CC1)C(=O)N[C@@H](CCC(=O)O)C(=O)N1CCC[C@@H]1C(=O)N2) [3BP-3934]
- isolated mass ([1]; scale 100 μmol): 12.20 mg
- isolated yield ([1]; scale 100 μmol): 12.2%

Substance: Ac-VYCE[dP]DWLTWAC-{NH(CH2)5NHDOTA} (linker 3-12 via mXylylene; SMILES CC(=O)N[C@H](C(=O)N[C@@H](Cc1ccc(O)cc1)C(=O)N[C@H]1CSCc2cccc(c2)CSC[C@@H](C(=O)NCCCCCNC(=O)CN2CCN(CC(=O)O)CCN(CC(=O)O)CCN(CC(=O)O)CC2)NC(=O)[C@H](C)NC(=O)[C@H](Cc2c[nH]c3ccccc23)NC(=O)[C@H]([C@@H](C)O)NC(=O)[C@H](CC(C)C)NC(=O)[C@H](Cc2c[nH]c3ccccc23)NC(=O)[C@H](CC(=O)O)NC(=O)[C@H]2CCCN2C(=O)[C@H](CCC(=O)O)NC1=O)C(C)C)
- isolated yield [2]: 6.7%

Substance: PEPTIDE1{[ac].V.Y.C.E.[Nlys].D.W.L.T.W.A.C.[am]}|CHEM1{[3MeBn]}|CHEM2{[DOTA]}$PEPTIDE1,CHEM1,4:R3-1:R1|PEPTIDE1,CHEM1,13:R3-1:R2|PEPTIDE1,CHEM2,6:R3-1:R2$$$V2.0
- isolated yield ([1]; scale 50 μmol): 17.5%

Substance: {DOTA}-[X2]VYCE[dP]D[X6]LTWSC-NH2 (linker 4-13 via mXylylene; SMILES CC(C)C[C@@H]1NC(=O)[C@H](Cc2cccc(NC(=O)CCC(=O)O)c2)NC(=O)[C@H](CC(=O)O)NC(=O)[C@H]2CCCN2C(=O)[C@H](CCC(=O)O)NC(=O)[C@@H](NC(=O)[C@H](Cc2ccc(O)cc2)NC(=O)[C@@H](NC(=O)CN2CCC(NC(=O)CN3CCN(CC(=O)O)CCN(CC(=O)O)CCN(CC(=O)O)CC3)CC2)C(C)C)CSCc2cccc(c2)CSC[C@@H](C(N)=O)NC(=O)[C@H](CO)NC(=O)[C@H](Cc2c[nH]c3ccccc23)NC(=O)[C@H]([C@@H](C)O)NC1=O)
- isolated mass ([1]; scale 50 μmol): 14.04 mg
- isolated yield ([1]; scale 50 μmol): 6.7%

Substance: Ac-VYCE[dP]DWLTWAC[AEEA]K(DOTA)-NH2 (linker 3-12 via mXylylene; SMILES CC(=O)N[C@H](C(=O)N[C@@H](Cc1ccc(O)cc1)C(=O)N[C@H]1CSCc2cccc(c2)CSC[C@@H](C(=O)NCCOCCOCC(=O)N[C@@H](CCCCNC(=O)CN2CCN(CC(=O)O)CCN(CC(=O)O)CCN(CC(=O)O)CC2)C(N)=O)NC(=O)[C@H](C)NC(=O)[C@H](Cc2c[nH]c3ccccc23)NC(=O)[C@H]([C@@H](C)O)NC(=O)[C@H](CC(C)C)NC(=O)[C@H](Cc2c[nH]c3ccccc23)NC(=O)[C@H](CC(=O)O)NC(=O)[C@H]2CCCN2C(=O)[C@H](CCC(=O)O)NC1=O)C(C)C)
- isolated mass ([1]; scale 50 μmol): 24.15 mg
- isolated yield ([1]; scale 50 μmol): 11.1%

Substance: Ac-VYCE[dP]DWLTWE(NH(CH2)3NHDOTA)C-NH2 (linker 3-12 via mXylylene; SMILES CC(=O)N[C@H](C(=O)N[C@@H](Cc1ccc(O)cc1)C(=O)N[C@H]1CSCc2cccc(c2)CSC[C@@H](C(N)=O)NC(=O)[C@H](CCC(=O)NCCCNC(=O)CN2CCN(CC(=O)O)CCN(CC(=O)O)CCN(CC(=O)O)CC2)NC(=O)[C@H](Cc2c[nH]c3ccccc23)NC(=O)[C@H]([C@@H](C)O)NC(=O)[C@H](CC(C)C)NC(=O)[C@H](Cc2c[nH]c3ccccc23)NC(=O)[C@H](CC(=O)O)NC(=O)[C@H]2CCCN2C(=O)[C@H](CCC(=O)O)NC1=O)C(C)C)
- isolated mass ([1]; scale 50 μmol): 11.84 mg
- isolated yield ([1]; scale 50 μmol): 5.8%

Substance: {DOTA}-[X2]VDCE[dP]DWLTW[Dap]C-NH2 (lactam 3-12; linker 4-13 via mXylylene; SMILES CC(C)C[C@@H]1NC(=O)[C@H](Cc2c[nH]c3ccccc23)NC(=O)[C@H](CC(=O)O)NC(=O)[C@H]2CCCN2C(=O)[C@H](CCC(=O)O)NC(=O)[C@@H]2CSCc3cccc(c3)CSC[C@@H](C(N)=O)NC(=O)[C@H](CNC(=O)C[C@H](NC(=O)[C@@H](NC(=O)CN3CCC(NC(=O)CN4CCN(CC(=O)O)CCN(CC(=O)O)CCN(CC(=O)O)CC4)CC3)C(C)C)C(=O)N2)NC(=O)[C@H](Cc2c[nH]c3ccccc23)NC(=O)[C@H]([C@@H](C)O)NC1=O)
- isolated mass ([1]; scale 100 μmol): 3.82 mg
- isolated yield ([1]; scale 100 μmol): 2.3%

Substance: DOTA-Gln-[Cys(3MeBn)-Glu-pro-Asp-Aph(SaPr)-Leu-Thr-Trp-Ser-Cys]-NH2
- isolated mass ([1]; scale 50 μmol, thioether ring): 9.95 mg
- isolated yield ([1]; scale 50 μmol, thioether ring): 10.12%

Substance: DOTA-{Glu-[Cys(3MeBn)-Glu-pro-Asp-Af3(Cpsu)-Leu-Thr-Trp-Dap}-Cys]-NH2
- isolated mass [3]: 5.18 mg
- isolated yield [3]: 5.3%

Substance: {DOTA}-[X2]VYCE[dP]E(NH(1-deoxy-D-glucityl))WLTWSC-NH2 (linker 4-13 via mXylylene; SMILES CC(C)C[C@@H]1NC(=O)[C@H](Cc2c[nH]c3ccccc23)NC(=O)[C@H](CCC(=O)NC[C@H](O)[C@@H](O)[C@H](O)[C@H](O)CO)NC(=O)[C@H]2CCCN2C(=O)[C@H](CCC(=O)O)NC(=O)[C@@H](NC(=O)[C@H](Cc2ccc(O)cc2)NC(=O)[C@@H](NC(=O)CN2CCC(NC(=O)CN3CCN(CC(=O)O)CCN(CC(=O)O)CCN(CC(=O)O)CC3)CC2)C(C)C)CSCc2cccc(c2)CSC[C@@H](C(N)=O)NC(=O)[C@H](CO)NC(=O)[C@H](Cc2c[nH]c3ccccc23)NC(=O)[C@H]([C@@H](C)O)NC1=O)
- isolated mass ([1]; scale 100 μmol): 6.64 mg
- isolated yield ([1]; scale 100 μmol): 2.88%

Substance: {DOTA}-[X2]VYCE[dP]DWLTWSC-NH2 (linker 4-13 via mXylylene; SMILES CC(C)C[C@@H]1NC(=O)[C@H](Cc2c[nH]c3ccccc23)NC(=O)[C@H](CC(=O)O)NC(=O)[C@H]2CCCN2C(=O)[C@H](CCC(=O)O)NC(=O)[C@@H](NC(=O)[C@H](Cc2ccc(O)cc2)NC(=O)[C@@H](NC(=O)CN2CCC(NC(=O)CN3CCN(CC(=O)O)CCN(CC(=O)O)CCN(CC(=O)O)CC3)CC2)C(C)C)CSCc2cccc(c2)CSC[C@@H](C(N)=O)NC(=O)[C@H](CO)NC(=O)[C@H](Cc2c[nH]c3ccccc23)NC(=O)[C@H]([C@@H](C)O)NC1=O)
- isolated mass ([1]; scale 50 μmol): 23.0 mg
- isolated yield ([1]; scale 50 μmol): 11.4%

Substance: PEPTIDE1{[capDOTA].[resAPAc].V.Y.C.E.[dP].[gluNHMe2Nph].W.L.T.W.S.C.[am]}|CHEM1{[L3MeBn]}$PEPTIDE1,CHEM1,5:R3-1:R1|PEPTIDE1,CHEM1,14:R3-1:R2$$$V2.0
- isolated mass ([1]; scale 50 μmol): 21.88 mg
- isolated yield ([1]; scale 50 μmol): 10.1%
